Among the data in publication doi:10.1101/2024.02.19.580884 (bioRxiv, 2024) are binding values, retold here.

These are yes or no findings as the source states them, for the method shown. Tags and fused reporters may be left off the sequences shown.

The test concerns the target T1, GST-tagged RfaA (Bacillus subtilis 168) (UniProt P54519).
T1 sequence: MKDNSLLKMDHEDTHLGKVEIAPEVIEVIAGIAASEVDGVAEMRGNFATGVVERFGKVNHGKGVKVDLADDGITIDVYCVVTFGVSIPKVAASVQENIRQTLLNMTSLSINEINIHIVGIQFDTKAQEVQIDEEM
The test can be described thus: pull-down.

On to 6xHis-CcpC, for which the binding entry was “no binding (tested: 0.1 mg)”.
